From article PMC12795458 come the findings set out here.

Assay [1] addresses T1, DnaN sliding clamp, Gal4 two-hybrid fusion (S. pneumoniae) (UniProt O06672).
T1 sequence: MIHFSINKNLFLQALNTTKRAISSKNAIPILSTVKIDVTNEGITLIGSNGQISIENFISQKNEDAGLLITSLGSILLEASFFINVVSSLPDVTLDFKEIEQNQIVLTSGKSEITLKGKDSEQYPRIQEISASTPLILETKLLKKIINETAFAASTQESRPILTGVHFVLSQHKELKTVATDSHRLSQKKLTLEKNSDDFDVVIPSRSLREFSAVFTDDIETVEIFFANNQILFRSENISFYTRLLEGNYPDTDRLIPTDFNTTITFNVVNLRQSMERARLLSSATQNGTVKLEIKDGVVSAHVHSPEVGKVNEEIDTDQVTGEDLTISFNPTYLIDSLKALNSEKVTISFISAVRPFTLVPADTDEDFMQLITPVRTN
Nature of the assay: two-hybrid; Gal4-based PGAD-C1 and PGBD-C1 fusions; yeast PJ69-4a mated with PJ69-4α; growth of diploid cells after 8 or 20 days at 30°C on synthetic complete medium lacking leucine, uracil and histidine (HIS3 reporter); empty-vector controls.

Assay [2] concerns the target T2, DnaN fused to the Nanoluciferase small subunit (CEPIIlac-smBit-dnaN) (S. pneumoniae) (UniProt O06672).
T2 sequence: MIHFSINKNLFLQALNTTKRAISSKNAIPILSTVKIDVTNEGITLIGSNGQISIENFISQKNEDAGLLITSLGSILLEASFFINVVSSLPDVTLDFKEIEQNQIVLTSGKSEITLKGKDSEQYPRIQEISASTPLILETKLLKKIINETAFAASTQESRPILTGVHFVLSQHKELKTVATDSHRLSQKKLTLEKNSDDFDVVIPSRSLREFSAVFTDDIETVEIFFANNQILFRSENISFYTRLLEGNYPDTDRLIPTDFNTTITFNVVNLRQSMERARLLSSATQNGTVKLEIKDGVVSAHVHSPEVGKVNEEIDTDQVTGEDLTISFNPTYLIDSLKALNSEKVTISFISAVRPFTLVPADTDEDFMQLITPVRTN
Nature of the assay: split reporter; split Nanoluciferase in S. pneumoniae cells; C+Y medium, 200 µM IPTG for 1 h, NanoGlo substrate; luminescence relative to the negative control strains R5380 and R5570.

Assay [3] has as its target RipA toxin (Spr1630), Gal4 two-hybrid fusion (S. pneumoniae) (UniProt Q8CYD6). Nature of the assay: two-hybrid; Gal4-based PGAD-C1 and PGBD-C1 fusions; yeast PJ69-4a mated with PJ69-4α; growth of diploid cells after 8 or 20 days at 30°C on synthetic complete medium lacking leucine, uracil and histidine (HIS3 reporter); empty-vector controls.

Results are given in words; binding and its absence hold for the method and conditions named. Binding can be weak; no strength is given. Tags and fused reporters may be left off the sequences shown. For part of these data: Binding seen in cells or lysates may run through a third protein.

Consider “RipA toxin (Spr1630), Gal4 two-hybrid fusion (from UniProt Q8CYD6)”, for which, in assay [1], the binding entry is recorded as “binds”.
As to “RipA fused to the Nanoluciferase large subunit (CEPlac-lgbit-ripA) (S. pneumoniae)”, the binding entry in assay [2] was “binds”.

B1: DnaN sliding clamp, Gal4 two-hybrid fusion (protein, UniProt O06672 1-378)
chain: MIHFSINKNLFLQALNTTKRAISSKNAIPILSTVKIDVTNEGITLIGSNGQISIENFISQKNEDAGLLITSLGSILLEASFFINVVSSLPDVTLDFKEIEQNQIVLTSGKSEITLKGKDSEQYPRIQEISASTPLILETKLLKKIINETAFAASTQESRPILTGVHFVLSQHKELKTVATDSHRLSQKKLTLEKNSDDFDVVIPSRSLREFSAVFTDDIETVEIFFANNQILFRSENISFYTRLLEGNYPDTDRLIPTDFNTTITFNVVNLRQSMERARLLSSATQNGTVKLEIKDGVVSAHVHSPEVGKVNEEIDTDQVTGEDLTISFNPTYLIDSLKALNSEKVTISFISAVRPFTLVPADTDEDFMQLITPVRTN
On to B1, for which, in assay [3], the binding entry is recorded as “binds”.
